# Laboratory results: the supplement of paper PMC8007513
# The other results are listed elsewhere or left out. Many values rest on one well or one pass, so single values are uncertain.
# Test system: Saccharomyces cerevisiae BY4743
# Assay: growth (OD600) relative to untreated control; higher = less growth inhibition
# Settings: compound concentration: 133 uM; 20 h
# Procedure: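 NMCCC compounds (133 uM, no IPBC) tested alone against Saccharomyces cerevisiae BY4743 in YPD, 96-well plates, starting OD600 ~0.1. Growth was read as OD600 at 20 h and expressed as % of the untreated control. Single pass.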
row,SMILES,growth
1,CC(C)CN1\C=C(\NC(=O)NCC2CCCO2)C3=CC=CC=C3C1=O (stereo unspecified),108%
2,CCOC(=O)CNC(=O)c1cc(Br)ccc1OCC(C)C,99.4%
3,O=C(NCCc1cccs1)c1cc(O)nc2ccccc12,99.8%
4,CN(C)[S](=O)(=O)C/1=C/N(CC(=O)C2=C(C)[N](CC3CCCO3)C(=C2)C)C(=O)/C=C1 (stereo unspecified),107%
5,Cc1noc(C(=O)N2CCC(Cc3ccccc3)CC2)c1Cl,92.8%
6,COc1ccc(-c2noc(CC(=O)N(CCC#N)c3ccccc3)n2)cc1,109%
7,CCOC(=O)\C1=C(/COC(=O)C2CCN(CC2)C(=O)C3=CC=CS3)NC(=O)NC1C (stereo unspecified),98.1%
8,O=C(O)c1nnn(-c2ccccc2Cl)c1-c1ccncc1,97.4%
9,CC(C)CCNC(=O)C(Cc1ccccc1)NS(=O)(=O)c1ccc2c(c1)c(=O)n(C)c(=O)n2C (stereo unspecified),112%
10,CCOC(=O)\C1=C(/C)NC(=O)NC1C2=C(C)SC(=C2)C (stereo unspecified),104%
11,CC(Nc1cccc(C(N)=O)c1)C(=O)N1CCN(C(=O)c2ccco2)CC1 (stereo unspecified),99.9%
12,COc1ccccc1CNc1sc(S(C)(=O)=O)nc1S(=O)(=O)c1ccc(C)cc1,89%
13,Cc1ccc(C)c(C(=O)CSc2nncn2Cc2ccco2)c1,113%
14,CC(=O)c1ccc(NC(=O)c2nc3nc(C)cc(C(F)F)n3n2)cc1,81.5%
15,Cn1cc(S(=O)(=O)N2CCOCC2)cc1C(=O)NCc1ccc(C(F)(F)F)cc1,116%
16,COC(=O)CC(NC(=O)c1cc(C(C)=O)c[nH]1)c1ccccc1Cl (stereo unspecified),85.5%

# Some values from the results shown.
# COc1ccccc1CNc1sc(S(C)(=O)=O)nc1S(=O)(=O)c1ccc(C)cc1 – growth: 89%
# CC(C)CCNC(=O)C(Cc1ccccc1)NS(=O)(=O)c1ccc2c(c1)c(=O)n(C)c(=O)n2C (stereo unspecified) – growth: 112%
